No constants are given. Whether binding was seen depends on the method and setting. Binding calls can cover weak binding; strength is not graded here.

The experiment has as its target mature PSA (prostate specific antigen) (human). The experiment is described as follows: incubation with ACT for two hours at 37° C., HIC-HPLC profile.

B1: α1-antichymotrypsin (ACT) (protein, UniProt P01011 24-423, looked up)
chain: HPNSPLDEENLTQENQDRGTHVDLGLASANVDFAFSLYKQLVLKAPDKNVIFSPLSISTALAFLSLGAHNTTLTEILKGLKFNLTETSEAEIHQSFQHLLRTLNQSSDELQLSMGNAMFVKEQLSLLDRFTEDAKRLYGSEAFATDFQDSAAAKKLINDYVKNGTRGKITDLIKDLDSQTMMVLVNYIFFKAKWEMPFDPQDTHQSRFYLSKKKWVMVPMMSLHHLTIPYFRDEELSCTVVELKYTGNASALFILPDQDKMEEVEAMLLPETLKRWRDSLEFREIGELYLPKFSISRDYNLNDILLQLGIEEAFTSKADLSGITGARNLAVSQVVHKAVLDVFEEGTEASAATAVKITLLSALVETRTIVRFNRPFLMIIVPTDTQNIFFMSKVTNPKQA
For B1, the binding result is listed as “binds”.

The values above are taken from US7659073.
